Measured data: PubChem BioAssay AID686943 (Drosophila RNAi Screening Center, 2013)

- Test: 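Knockdowns that increase or decrease active ERK after insulin receptor stimulation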 (primary screen)
- Cells: Drosophila S2R+ haemocyte-like cells expressing YFP-tagged ERK (Rolled)
- Reagents: long dsRNA against Drosophila genes
- Treatment: insulin stimulation versus unstimulated cells; dose and duration not given
- Measurement: 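Antibody staining for doubly phosphorylated ERK divided by ERK-YFP signal, as plate z-scores, in insulin-treated and untreated cells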
- Direction: replicate 1, z-score of dpERK with insulin and replicate 2, z-score of dpERK with insulin: higher = more active ERK per ERK-YFP after insulin; replicate 1, z-score of dpERK under basal conditions: higher = more basal active ERK per ERK-YFP; replicate 1, z-score of ERK-YFP with insulin: higher = more YFP-tagged ERK signal
In all, the deposit lists about 23,000 reagents; below is a random part of those that have a named target and a result. 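Extra replicates exist only for a retested subset of genes; insulin dose and duration not given; both raised and lowered dpERK matter.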 The numbers tell different reagents against one gene apart. A plus sign joins genes that one reagent is predicted to hit. Not stated in the record: the amount of reagent, the time to read-out.

Target gene	dsRNA no.	replicate 1, z-score of dpERK with insulin	replicate 2, z-score of dpERK with insulin	replicate 1, z-score of dpERK under basal conditions	replicate 1, z-score of ERK-YFP with insulin
mRpS2 (GeneID 33688)	1	-0.18	0.8	0.41	0.71
CG12818 (GeneID 41261)	1	0.02	0.52	0.51	-0.34
CG11403 (GeneID 31072)	1	-0.72	3.47	-0.33	0.89
CG13616 (GeneID 42917)	1	-0.41	0	0.57	0.36
CG5608 (GeneID 41543)	1	-0.07	0.26	-0.38	1.36
smid (GeneID 38824)	1	0.4	-1.54	-0.46	0.05
alpha-Est6 (GeneID 40902)	1	0.4	0.06	0.57	-2.02
vsg (GeneID 39137)	1	-0.71	0.45	-0.05	0.59
CG9297 (GeneID 41688)	1	1.17	0.43	1.87	1.69
svr (GeneID 30998)	1	-0.1	-0.25	0.14	0.16
svr (GeneID 30998)	2	0.69	0.79	1.22	-0.38
CG16743 (GeneID 34517)	1	0.28	0.33	1.13	0.19
CG3407 (GeneID 33606)	1	0.07	-0.03	-0.07	-1.36
CG4612 (GeneID 37914)	1	-1.92	-0.63	0.45	-0.86
CG31809 (GeneID 318954)	1	-0.78	-1.15	-0.54	0.8
CG8003 (GeneID 39210)	1	-0.34	-0.17	0.43	0.56
EndoB (GeneID 37218)	1	-1.93	-0.04	-0.68	-0.99
Hmgcl (GeneID 33978)	1	0.37	0	1.3	0.75
CG32373 (GeneID 318000)	1	-0.16	0.14	1.15	-0.45
CG43121 (GeneID 12798254)	1	0.56	-0.17	-0.05	0.42
Cdk1 (GeneID 34411)	1	-2.74	-2.38	-2.8	-4.35
CG30094 (GeneID 246452)	1	-2.9	1.11	0.96	-0.25
Skp2 + CG14645	1	1.02	-0.08	-0.79	-0.17
TwdlC (GeneID 43245)	1	0.98	-0.05	0.87	0.06
CG44098 (GeneID 40590)	1	0.66	0.92	0.4	0.27
CG44098 (GeneID 40590)	2	0.89	-0.17	1.7	-4.78
CG44098 (GeneID 40590)	3	0.14	0.75	-0.17	0.32
CG10116 (GeneID 39515)	1	0.31	0.43	0.06	0.94
Sou (GeneID 37382)	1	-1.11	-1.06	2.3	0.45
aqz (GeneID 41058)	1	0.4	1.23	0.72	-0.72
CG7706 (GeneID 42244)	1	0.13	-0.13	-0.15	0.43
Caf1-55 (GeneID 41836)	1	-2.4	-3.03	-3.17	-1.08
park (GeneID 40336)	1	-0.13	0.21	-0.18	0.01
CG14722 (GeneID 41419)	1	-0.14	-0.38	-0.19	-0.85
Dh44 (GeneID 41170)	1	0.38	-0.38	0.47	1.15
Dh44 (GeneID 41170)	2	0.55	0.12	-0.46	0.49
Mocs2A + Mocs2B	1	-0.74	-1.13	-2.58	0.14
Mocs2A + Mocs2B	2	0.76	-0.12	0.27	-0.07
Brr2 (GeneID 39737)	1	1.37	4.04	-1.01	-4.34

As entered above:
Under “replicate 1, z-score of ERK-YFP with insulin”, Dh44 (GeneID 41170) #1 is entered as 1.15
Under “replicate 1, z-score of dpERK with insulin”, CG43121 (GeneID 12798254) reads 0.56
CG9297 (GeneID 41688), replicate 2, z-score of dpERK with insulin: 0.43
Under “replicate 1, z-score of dpERK under basal conditions”, CG13616 (GeneID 42917) shows 0.57
For “replicate 1, z-score of dpERK with insulin”, Dh44 (GeneID 41170) #2 reads 0.55
